Laboratory results: ChEMBL document CHEMBL4495565, “Cytopathic SARS-Cov2 screening on VERO-E6 cells in a large repurposing effort” (2020)

Test system: SARS-CoV-2
Assay: microbe, parasite or virus in culture
Type: functional, organism-based, Chlorocebus sabaeus
Conditions: Severe acute respiratory syndrome coronavirus 2, Vero C1008, 48 h

Question: Which IC50 does the source give for Nc1ccc(C(=O)Nc2cccc(-c3nc(N4CCOCC4)c4oc5ncccc5c4n3)c2)cn1 here?
Answer: The IC50 was 4.73 µM.
